Test [1] addresses T1, GST-PKMYT1 (UniProt Q99640).
T1 sequence: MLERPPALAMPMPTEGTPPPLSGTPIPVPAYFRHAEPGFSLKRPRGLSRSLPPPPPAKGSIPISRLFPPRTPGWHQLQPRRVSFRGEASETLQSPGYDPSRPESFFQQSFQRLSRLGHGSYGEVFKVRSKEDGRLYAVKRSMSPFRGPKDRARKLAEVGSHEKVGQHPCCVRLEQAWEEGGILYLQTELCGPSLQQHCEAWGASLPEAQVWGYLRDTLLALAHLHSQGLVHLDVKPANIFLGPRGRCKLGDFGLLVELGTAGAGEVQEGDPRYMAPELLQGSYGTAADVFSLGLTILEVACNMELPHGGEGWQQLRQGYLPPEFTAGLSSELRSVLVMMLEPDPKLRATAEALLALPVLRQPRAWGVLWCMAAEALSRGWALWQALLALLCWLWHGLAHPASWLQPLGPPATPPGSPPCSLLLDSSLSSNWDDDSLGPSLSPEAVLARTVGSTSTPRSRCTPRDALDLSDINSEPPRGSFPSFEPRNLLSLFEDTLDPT
Put plainly: pull-down; GST-NPM1 or GST-PKMYT1 on glutathione-sepharose beads incubated with cell lysates (RIPA buffer) at 4 °C for 24 h; Western blot; only the target purified.

Sequences of proteins named here, by UniProt entry; tags and fusion partners are left off. A change or cut given only in a name is not applied to a line headed by its entry.
UniProt P06748: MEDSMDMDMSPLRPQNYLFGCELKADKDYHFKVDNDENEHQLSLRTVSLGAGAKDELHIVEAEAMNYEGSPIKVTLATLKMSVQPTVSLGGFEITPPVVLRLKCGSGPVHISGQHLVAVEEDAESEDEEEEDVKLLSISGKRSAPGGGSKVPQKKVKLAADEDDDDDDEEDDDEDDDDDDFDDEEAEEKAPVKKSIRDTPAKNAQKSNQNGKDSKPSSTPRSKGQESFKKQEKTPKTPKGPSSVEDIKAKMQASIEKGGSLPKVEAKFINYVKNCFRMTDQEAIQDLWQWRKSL
UniProt Q06609: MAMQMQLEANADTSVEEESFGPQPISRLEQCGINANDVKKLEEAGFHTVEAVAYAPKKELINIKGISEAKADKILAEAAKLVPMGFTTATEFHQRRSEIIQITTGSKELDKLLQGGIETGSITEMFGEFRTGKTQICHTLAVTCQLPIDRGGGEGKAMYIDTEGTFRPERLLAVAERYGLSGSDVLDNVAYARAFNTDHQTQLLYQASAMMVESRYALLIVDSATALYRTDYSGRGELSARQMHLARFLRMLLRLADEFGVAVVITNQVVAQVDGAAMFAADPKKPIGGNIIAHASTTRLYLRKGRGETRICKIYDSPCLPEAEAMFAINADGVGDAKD

In test [2] the target is T1, GST-PKMYT1. Put plainly: pull-down; GST-PKMYT1 or GST-NPM1 on glutathione-sepharose beads incubated overnight at 4 °C with in vitro transcribed and translated NPM1 or PKMYT1; six washes with binding buffer; Western blot and Coomassie blue; only the target purified.
The target of test [3] is nucleophosmin 1 (NPM1) (human (endogenous in HEK293T and the paper's other human cell lines)) (UniProt P06748). Put plainly: co-IP; HEK293T lysates; cells with siPKMYT1 (48 h), RP6306 (2 μM, 24 h) and/or cisplatin (1 μM, 24 h) before harvest; Western blot. (A western blot detects proteins with antibodies after separation by electrophoresis.)
The target of test [4] is wild-type NPM1 (expressed from a plasmid) (UniProt P06748). As to the kind of experiment: co-IP; HEK293T transfected with NPM1 wild-type or S260A plasmids for 24 h, with or without cisplatin (1 μM); Western blot.
Test [5] concerns the target NPM1 S260A mutant (phosphodeficient) (UniProt P06748). The test is described as above.
Test [6] addresses nucleophosmin 1 (NPM1) (human (endogenous in HEK293T and the paper's other human cell lines)) (UniProt P06748). Put plainly: co-IP; endogenous proteins; whole-cell lysates with anti-NPM1 and anti-PKMYT1 antibodies and Protein A/G agarose beads, overnight at 4 °C; lysis buffer 50 mM Tris-HCl pH 7.4, 150 mM NaCl, 50 mM NaF, 1 mM EDTA; Western blot.
The target of test [7] is GST-NPM1 (UniProt P06748). As to the kind of experiment: pull-down; GST-NPM1 or GST-PKMYT1 on glutathione-sepharose beads incubated with cell lysates (RIPA buffer) at 4 °C for 24 h; Western blot; only the target purified.
The target of test [8] is GST-NPM1 (UniProt P06748). As to the kind of experiment: pull-down; GST-PKMYT1 or GST-NPM1 on glutathione-sepharose beads incubated overnight at 4 °C with in vitro transcribed and translated NPM1 or PKMYT1; six washes with binding buffer; Western blot and Coomassie blue; only the target purified.

These are yes or no findings as the source states them, for the method shown. Binding seen in cells or lysates may run through a third protein. Some binding calls cover weakened binding; strength is not graded here. For some assays here: Sequences can lack the tags named with a protein.

Take “nucleophosmin 1 (NPM1) (from UniProt P06748 1-294)”: the binding entry in the test with GST-PKMYT1 [1] is on record as “binds”.
Consider “in vitro transcribed and translated NPM1 (from UniProt P06748 1-294)”, for which the binding result with GST-PKMYT1 [2] is on record as “binds”.
For “RADiation sensitive protein 51 (RAD51) (from UniProt Q06609 1-339)”, the binding entry in test [3], in test [4] and in test [5] was “binds” throughout.

B1: receptor-associated protein 80 (RAP80) (protein, UniProt Q96RL1 1-719)
chain: MPRRKKKVKEVSESRNLEKKDVETTSSVSVKRKRRLEDAFIVISDSDGEEPKEENGLQKTKTKQSNRAKCLAKRKIAQMTEEEQFALALKMSEQEAREVNSQEEEEEELLRKAIAESLNSCRPSDASATRSRPLATGPSSQSHQEKTTDSGLTEGIWQLVPPSLFKGSHISQGNEAEEREEPWDHTEKTEEEPVSGSSGSWDQSSQPVFENVNVKSFDRCTGHSAEHTQCGKPQESTGRGSAFLKAVQGSGDTSRHCLPTLADAKGLQDTGGTVNYFWGIPFCPDGVDPNQYTKVILCQLEVYQKSLKMAQRQLLNKKGFGEPVLPRPPSLIQNECGQGEQASEKNECISEDMGDEDKEERQESRASDWHSKTKDFQESSIKSLKEKLLLEEEPTTSHGQSSQGIVEETSEEGNSVPASQSVAALTSKRSLVLMPESSAEEITVCPETQLSSSETFDLEREVSPGSRDILDGVRIIMADKEVGNKEDAEKEVAISTFSSSNQVSCPLCDQCFPPTKIERHAMYCNGLMEEDTVLTRRQKEAKTKSDSGTAAQTSLDIDKNEKCYLCKSLVPFREYQCHVDSCLQLAKADQGDGPEGSGRACSTVEGKWQQRLKNPKEKGHSEGRLLSFLEQSEHKTSDADIKSSETGAFRVPSPGMEEAGCSREMQSSFTRRDLNESPVKSFVSISEATDCLVDFKKQVTVQPGSRTRTKAGRGRRRKF
Take B1: the binding entry in test [3], in test [4] and in test [5] was “binds” in each case.

B2: protein kinase membrane-associated tyrosine/threonine 1 (PKMYT1) (enzyme, UniProt Q99640 1-499)
chain: MLERPPALAMPMPTEGTPPPLSGTPIPVPAYFRHAEPGFSLKRPRGLSRSLPPPPPAKGSIPISRLFPPRTPGWHQLQPRRVSFRGEASETLQSPGYDPSRPESFFQQSFQRLSRLGHGSYGEVFKVRSKEDGRLYAVKRSMSPFRGPKDRARKLAEVGSHEKVGQHPCCVRLEQAWEEGGILYLQTELCGPSLQQHCEAWGASLPEAQVWGYLRDTLLALAHLHSQGLVHLDVKPANIFLGPRGRCKLGDFGLLVELGTAGAGEVQEGDPRYMAPELLQGSYGTAADVFSLGLTILEVACNMELPHGGEGWQQLRQGYLPPEFTAGLSSELRSVLVMMLEPDPKLRATAEALLALPVLRQPRAWGVLWCMAAEALSRGWALWQALLALLCWLWHGLAHPASWLQPLGPPATPPGSPPCSLLLDSSLSSNWDDDSLGPSLSPEAVLARTVGSTSTPRSRCTPRDALDLSDINSEPPRGSFPSFEPRNLLSLFEDTLDPT
As to B2, the binding entry (in test [6]; in the test with GST-NPM1 [7]) was “binds” in each case.

B3: in vitro transcribed and translated PKMYT1 (enzyme, UniProt Q99640 1-499)
chain: MLERPPALAMPMPTEGTPPPLSGTPIPVPAYFRHAEPGFSLKRPRGLSRSLPPPPPAKGSIPISRLFPPRTPGWHQLQPRRVSFRGEASETLQSPGYDPSRPESFFQQSFQRLSRLGHGSYGEVFKVRSKEDGRLYAVKRSMSPFRGPKDRARKLAEVGSHEKVGQHPCCVRLEQAWEEGGILYLQTELCGPSLQQHCEAWGASLPEAQVWGYLRDTLLALAHLHSQGLVHLDVKPANIFLGPRGRCKLGDFGLLVELGTAGAGEVQEGDPRYMAPELLQGSYGTAADVFSLGLTILEVACNMELPHGGEGWQQLRQGYLPPEFTAGLSSELRSVLVMMLEPDPKLRATAEALLALPVLRQPRAWGVLWCMAAEALSRGWALWQALLALLCWLWHGLAHPASWLQPLGPPATPPGSPPCSLLLDSSLSSNWDDDSLGPSLSPEAVLARTVGSTSTPRSRCTPRDALDLSDINSEPPRGSFPSFEPRNLLSLFEDTLDPT
For B3, in the test with GST-NPM1 [8], the binding result is “binds”.

(Values after PMC12092789.)
